Source: publication PMC3615554 (Journal of biomolecular screening, 2012)

Assays:
[1] = system: H2030 cells (wild type EGFR); test: Alamar Blue viability assay, H2030; format: cell-based; settings: Homo sapiens, NCI-H2030, 120 h, read-out: Alamar Blue viability assay IC50 H2030
recombinant EGFR kinase = settings: read-out: Reported IC50 toward recombinant EGFR kinase; cited from earlier work
[2] = system: H3255 cells (L858R EGFR mutation); test: Alamar Blue viability assay, H3255; format: cell-based; settings: Homo sapiens, NCI-H3255, 120 h, read-out: Alamar Blue viability assay IC50 H3255
A549-EGFRB cells = test: EGFRB assay, nuclei count readout; format: cell-based
[3] = system: A549 cells (wild type EGFR); test: Alamar Blue viability assay, A549; format: cell-based; settings: Homo sapiens, A549, 120 h, read-out: Alamar Blue viability assay IC50 A549
[4] = system: HCC4011 cells (L858R EGFR mutation); test: Alamar Blue viability assay, HCC4011; format: cell-based; settings: Homo sapiens, HCC4011, 120 h, read-out: Alamar Blue viability assay IC50 HCC4011
[5] = system: EGFR activation (granule formation) in A549-EGFRB cells; test: EGFRB assay, granule count readout; format: cell-based; settings: read-out: HTS % inhibition at 10 μM Granule count

Structure (SMILES): CO[C@@H]1[C@H](N(C)C(=O)c2ccccc2)C[C@H]2O[C@]1(C)n1c3ccccc3c3c4c(c5c6ccccc6n2c5c31)C(=O)NC4 [PKC 412]
- IC50 [1]: 2000 ± 1700 nM
- IC50 (recombinant EGFR kinase): 3000 nM
- IC50 [2]: 1900 ± 200 nM
- IC50 or EC50 (nM) Nuclei count (A549-EGFRB cells; inhibitors, dose response up to 10 μM, N.E. = no effect, * = partial inhibition): N.E.^*
- inhibition at 10 µM (A549-EGFRB cells; read-out: HTS % inhibition at 10 μM Nuclei count): 35%
- IC50 [3]: 340 ± 30 nM
- IC50 [4]: 2300 ± 600 nM
- inhibition at 10 µM [5]: 68%
